Results on two substances are retold here after article PMC3812651.

Chains of the proteins cited; added tags and fusions are not shown.
UniProt Q8N6T7: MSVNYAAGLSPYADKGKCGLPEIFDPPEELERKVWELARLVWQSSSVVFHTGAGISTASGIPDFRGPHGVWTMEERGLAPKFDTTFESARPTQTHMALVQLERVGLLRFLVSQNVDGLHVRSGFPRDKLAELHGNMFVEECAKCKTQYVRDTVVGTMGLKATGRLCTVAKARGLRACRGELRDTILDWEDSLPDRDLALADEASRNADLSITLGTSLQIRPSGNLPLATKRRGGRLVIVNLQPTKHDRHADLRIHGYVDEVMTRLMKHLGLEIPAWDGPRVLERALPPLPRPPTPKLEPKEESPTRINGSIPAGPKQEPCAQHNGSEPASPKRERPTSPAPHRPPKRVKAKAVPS
UniProt P78527: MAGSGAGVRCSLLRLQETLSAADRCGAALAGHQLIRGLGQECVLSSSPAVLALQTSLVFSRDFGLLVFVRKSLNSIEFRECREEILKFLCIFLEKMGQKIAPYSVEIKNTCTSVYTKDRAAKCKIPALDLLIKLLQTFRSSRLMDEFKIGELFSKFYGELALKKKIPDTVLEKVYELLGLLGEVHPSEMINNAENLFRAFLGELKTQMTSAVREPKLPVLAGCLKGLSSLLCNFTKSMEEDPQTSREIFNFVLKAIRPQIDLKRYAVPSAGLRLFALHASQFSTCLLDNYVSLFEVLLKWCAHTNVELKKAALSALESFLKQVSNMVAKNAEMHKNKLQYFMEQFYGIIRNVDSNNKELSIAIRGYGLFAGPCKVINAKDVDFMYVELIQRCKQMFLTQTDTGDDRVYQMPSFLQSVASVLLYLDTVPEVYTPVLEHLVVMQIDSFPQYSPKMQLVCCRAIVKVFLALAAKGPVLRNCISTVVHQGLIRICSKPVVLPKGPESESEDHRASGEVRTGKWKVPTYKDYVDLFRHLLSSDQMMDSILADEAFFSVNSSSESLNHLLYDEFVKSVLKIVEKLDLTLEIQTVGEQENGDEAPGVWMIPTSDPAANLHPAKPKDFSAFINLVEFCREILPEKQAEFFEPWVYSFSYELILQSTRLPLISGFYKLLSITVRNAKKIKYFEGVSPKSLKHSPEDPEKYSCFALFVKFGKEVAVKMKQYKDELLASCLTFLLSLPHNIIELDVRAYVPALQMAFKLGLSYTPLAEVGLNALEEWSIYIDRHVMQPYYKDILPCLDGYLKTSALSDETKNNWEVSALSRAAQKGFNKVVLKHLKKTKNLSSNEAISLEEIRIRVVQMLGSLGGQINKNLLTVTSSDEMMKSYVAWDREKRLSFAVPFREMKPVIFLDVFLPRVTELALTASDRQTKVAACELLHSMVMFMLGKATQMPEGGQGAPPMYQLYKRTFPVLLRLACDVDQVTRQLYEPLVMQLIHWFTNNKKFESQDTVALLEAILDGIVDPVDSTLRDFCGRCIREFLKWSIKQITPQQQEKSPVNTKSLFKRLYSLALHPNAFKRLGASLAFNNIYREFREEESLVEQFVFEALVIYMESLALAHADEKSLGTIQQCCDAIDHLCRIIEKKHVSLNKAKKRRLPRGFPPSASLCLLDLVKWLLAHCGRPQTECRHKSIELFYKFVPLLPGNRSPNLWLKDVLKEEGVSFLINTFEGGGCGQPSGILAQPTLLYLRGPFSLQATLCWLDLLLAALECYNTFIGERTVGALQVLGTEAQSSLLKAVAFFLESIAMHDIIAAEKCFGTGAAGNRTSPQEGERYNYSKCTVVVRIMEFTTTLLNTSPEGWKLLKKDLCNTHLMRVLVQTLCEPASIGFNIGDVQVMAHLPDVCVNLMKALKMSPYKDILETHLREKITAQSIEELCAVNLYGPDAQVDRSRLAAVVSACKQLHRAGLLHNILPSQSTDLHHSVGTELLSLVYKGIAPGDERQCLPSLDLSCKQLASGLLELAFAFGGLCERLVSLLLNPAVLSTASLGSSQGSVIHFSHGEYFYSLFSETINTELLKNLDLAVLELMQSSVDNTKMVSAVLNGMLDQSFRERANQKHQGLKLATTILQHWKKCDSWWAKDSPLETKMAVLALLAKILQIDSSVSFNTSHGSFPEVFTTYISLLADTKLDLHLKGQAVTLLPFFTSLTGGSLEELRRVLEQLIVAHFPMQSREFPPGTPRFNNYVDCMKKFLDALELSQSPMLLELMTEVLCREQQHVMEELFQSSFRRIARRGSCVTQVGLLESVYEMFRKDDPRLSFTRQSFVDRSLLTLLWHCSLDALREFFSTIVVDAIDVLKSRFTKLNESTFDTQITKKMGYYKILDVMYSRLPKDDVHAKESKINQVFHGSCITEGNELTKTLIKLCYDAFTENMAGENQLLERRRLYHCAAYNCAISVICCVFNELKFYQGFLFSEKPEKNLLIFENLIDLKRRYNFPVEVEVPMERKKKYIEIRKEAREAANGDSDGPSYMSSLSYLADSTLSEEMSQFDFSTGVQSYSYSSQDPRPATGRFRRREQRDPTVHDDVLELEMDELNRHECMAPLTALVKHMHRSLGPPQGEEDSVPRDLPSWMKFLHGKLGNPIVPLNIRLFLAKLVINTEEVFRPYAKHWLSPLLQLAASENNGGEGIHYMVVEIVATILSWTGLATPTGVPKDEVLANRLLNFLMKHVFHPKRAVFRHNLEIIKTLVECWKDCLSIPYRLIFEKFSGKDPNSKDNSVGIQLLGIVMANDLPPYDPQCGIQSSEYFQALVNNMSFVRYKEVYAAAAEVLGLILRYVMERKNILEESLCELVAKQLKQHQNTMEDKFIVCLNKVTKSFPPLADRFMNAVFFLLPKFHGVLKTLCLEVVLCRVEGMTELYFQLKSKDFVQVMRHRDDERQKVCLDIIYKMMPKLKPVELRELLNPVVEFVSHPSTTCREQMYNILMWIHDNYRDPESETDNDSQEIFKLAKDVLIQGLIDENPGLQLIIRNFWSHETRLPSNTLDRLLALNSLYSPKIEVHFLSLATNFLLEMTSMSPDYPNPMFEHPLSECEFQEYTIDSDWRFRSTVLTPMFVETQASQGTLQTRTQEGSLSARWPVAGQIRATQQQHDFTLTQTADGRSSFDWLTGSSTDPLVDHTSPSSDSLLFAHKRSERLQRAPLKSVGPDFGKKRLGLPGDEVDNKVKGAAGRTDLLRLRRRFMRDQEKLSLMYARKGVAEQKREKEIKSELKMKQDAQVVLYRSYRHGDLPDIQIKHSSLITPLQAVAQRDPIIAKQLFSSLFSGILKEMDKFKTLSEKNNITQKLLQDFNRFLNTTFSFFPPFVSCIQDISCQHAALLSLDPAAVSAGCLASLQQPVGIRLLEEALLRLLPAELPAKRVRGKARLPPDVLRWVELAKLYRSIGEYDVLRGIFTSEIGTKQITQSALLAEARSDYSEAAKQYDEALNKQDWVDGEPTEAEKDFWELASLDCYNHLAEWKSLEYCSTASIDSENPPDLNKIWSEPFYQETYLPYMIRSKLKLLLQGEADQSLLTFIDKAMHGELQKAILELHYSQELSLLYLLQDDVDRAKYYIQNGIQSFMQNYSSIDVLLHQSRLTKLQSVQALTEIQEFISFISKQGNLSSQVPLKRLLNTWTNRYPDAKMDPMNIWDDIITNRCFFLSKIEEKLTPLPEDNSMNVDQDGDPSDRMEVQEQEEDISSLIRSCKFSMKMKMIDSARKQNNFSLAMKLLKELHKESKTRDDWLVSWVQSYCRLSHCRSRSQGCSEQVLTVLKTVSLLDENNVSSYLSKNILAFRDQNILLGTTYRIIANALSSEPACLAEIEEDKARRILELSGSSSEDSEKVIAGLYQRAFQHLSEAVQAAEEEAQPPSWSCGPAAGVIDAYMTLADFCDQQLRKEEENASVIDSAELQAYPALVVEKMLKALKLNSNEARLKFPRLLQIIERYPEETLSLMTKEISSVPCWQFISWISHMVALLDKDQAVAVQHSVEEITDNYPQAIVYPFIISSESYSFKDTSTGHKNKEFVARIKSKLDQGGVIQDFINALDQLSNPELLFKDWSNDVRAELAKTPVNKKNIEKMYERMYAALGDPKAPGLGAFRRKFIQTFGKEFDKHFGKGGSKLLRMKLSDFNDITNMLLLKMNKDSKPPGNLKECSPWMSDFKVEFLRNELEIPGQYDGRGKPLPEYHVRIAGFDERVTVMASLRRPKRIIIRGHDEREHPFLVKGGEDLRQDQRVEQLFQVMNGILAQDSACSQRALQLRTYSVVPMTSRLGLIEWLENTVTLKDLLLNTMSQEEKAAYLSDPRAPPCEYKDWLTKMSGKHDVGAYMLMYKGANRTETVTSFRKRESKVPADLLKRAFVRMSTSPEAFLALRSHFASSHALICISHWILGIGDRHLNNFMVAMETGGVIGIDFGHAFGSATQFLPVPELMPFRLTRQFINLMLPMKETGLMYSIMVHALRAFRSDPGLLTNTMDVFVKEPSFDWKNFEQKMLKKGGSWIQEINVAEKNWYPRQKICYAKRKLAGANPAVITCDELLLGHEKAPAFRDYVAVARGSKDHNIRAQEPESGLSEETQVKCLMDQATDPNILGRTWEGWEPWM
UniProt Q13283: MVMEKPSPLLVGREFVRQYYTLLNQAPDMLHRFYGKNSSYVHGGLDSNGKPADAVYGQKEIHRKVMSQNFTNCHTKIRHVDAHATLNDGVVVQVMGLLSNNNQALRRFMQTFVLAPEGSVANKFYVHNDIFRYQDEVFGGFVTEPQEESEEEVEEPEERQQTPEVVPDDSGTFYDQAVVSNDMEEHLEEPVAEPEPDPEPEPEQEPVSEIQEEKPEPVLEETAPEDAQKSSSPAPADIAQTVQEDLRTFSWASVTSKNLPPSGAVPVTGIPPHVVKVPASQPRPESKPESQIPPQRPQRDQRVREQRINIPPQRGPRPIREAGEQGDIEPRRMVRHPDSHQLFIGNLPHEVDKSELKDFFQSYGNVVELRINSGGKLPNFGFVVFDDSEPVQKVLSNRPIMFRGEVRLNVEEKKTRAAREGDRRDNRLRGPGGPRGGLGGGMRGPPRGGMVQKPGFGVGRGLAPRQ

No constants are given. Whether binding was seen depends on the method and setting. In cells and extracts the contact can be indirect. Here binding means that the protein was enriched with, or labelled near, the bait; the list need not be complete.

The target of the test is SIRT6 with a C-terminal FLAG tag, stably expressed in HeLa S3 cells (UniProt Q8N6T7). The experiment in a line: affinity purification with mass spectrometry; SIRT6-FLAG from pooled Superose 6 fractions (400-600, 600-800, 800-1200 KDa) of HeLa S3 nuclear extract on anti-FLAG M2 agarose, eluted with Flag-peptide, LC-MS; control cells in parallel.

As for “DNA-PKcs, endogenous in HeLa S3 cells (from UniProt P78527 1-4128)”, the binding entry was “binds”.

Consider “G3BP1 (GTPase Activating Protein Binding Protein 1), endogenous in human cells (from UniProt Q13283 1-466)”, for which the binding result is “binds”.
